# The other results are listed elsewhere or left out.
# Sequences of proteins named here, by UniProt entry; tags and fusion partners are left off. A change or cut given only in a name is not applied to a line headed by its entry.
# UniProt Q8IWR0: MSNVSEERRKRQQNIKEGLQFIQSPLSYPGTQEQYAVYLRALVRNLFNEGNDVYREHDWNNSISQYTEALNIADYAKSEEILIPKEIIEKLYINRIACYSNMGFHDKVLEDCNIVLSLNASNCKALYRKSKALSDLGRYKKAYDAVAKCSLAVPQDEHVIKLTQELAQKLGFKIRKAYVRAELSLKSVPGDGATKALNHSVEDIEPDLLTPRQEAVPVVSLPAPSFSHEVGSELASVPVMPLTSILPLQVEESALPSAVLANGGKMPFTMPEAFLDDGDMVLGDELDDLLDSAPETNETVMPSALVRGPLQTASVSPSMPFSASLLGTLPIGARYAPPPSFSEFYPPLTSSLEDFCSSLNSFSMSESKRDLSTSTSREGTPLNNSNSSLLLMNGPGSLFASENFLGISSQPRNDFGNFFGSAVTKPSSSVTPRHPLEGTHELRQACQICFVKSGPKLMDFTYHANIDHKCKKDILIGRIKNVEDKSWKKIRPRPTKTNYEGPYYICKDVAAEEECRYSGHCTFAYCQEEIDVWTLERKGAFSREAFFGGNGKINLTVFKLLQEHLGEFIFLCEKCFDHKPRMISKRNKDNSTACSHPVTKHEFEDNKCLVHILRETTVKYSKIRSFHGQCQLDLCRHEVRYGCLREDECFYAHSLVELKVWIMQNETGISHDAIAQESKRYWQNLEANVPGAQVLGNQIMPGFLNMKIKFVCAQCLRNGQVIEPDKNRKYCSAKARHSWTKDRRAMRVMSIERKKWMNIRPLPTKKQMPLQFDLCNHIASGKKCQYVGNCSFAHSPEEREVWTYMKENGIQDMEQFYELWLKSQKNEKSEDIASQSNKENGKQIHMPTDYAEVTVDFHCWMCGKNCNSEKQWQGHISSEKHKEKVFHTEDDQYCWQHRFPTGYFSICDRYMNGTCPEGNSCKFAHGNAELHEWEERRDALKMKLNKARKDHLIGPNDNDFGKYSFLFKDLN
# UniProt Q9NUD5: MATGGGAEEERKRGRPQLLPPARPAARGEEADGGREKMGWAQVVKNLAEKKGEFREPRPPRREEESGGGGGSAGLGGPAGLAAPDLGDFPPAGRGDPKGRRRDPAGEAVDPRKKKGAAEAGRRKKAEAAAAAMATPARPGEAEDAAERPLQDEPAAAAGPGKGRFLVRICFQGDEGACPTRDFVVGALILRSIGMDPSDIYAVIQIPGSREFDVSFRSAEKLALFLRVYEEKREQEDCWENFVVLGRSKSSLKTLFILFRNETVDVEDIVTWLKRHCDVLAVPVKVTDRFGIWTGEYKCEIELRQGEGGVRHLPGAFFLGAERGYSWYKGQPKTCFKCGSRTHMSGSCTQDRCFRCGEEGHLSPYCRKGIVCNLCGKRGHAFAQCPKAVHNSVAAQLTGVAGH
# UniProt Q9H0D6: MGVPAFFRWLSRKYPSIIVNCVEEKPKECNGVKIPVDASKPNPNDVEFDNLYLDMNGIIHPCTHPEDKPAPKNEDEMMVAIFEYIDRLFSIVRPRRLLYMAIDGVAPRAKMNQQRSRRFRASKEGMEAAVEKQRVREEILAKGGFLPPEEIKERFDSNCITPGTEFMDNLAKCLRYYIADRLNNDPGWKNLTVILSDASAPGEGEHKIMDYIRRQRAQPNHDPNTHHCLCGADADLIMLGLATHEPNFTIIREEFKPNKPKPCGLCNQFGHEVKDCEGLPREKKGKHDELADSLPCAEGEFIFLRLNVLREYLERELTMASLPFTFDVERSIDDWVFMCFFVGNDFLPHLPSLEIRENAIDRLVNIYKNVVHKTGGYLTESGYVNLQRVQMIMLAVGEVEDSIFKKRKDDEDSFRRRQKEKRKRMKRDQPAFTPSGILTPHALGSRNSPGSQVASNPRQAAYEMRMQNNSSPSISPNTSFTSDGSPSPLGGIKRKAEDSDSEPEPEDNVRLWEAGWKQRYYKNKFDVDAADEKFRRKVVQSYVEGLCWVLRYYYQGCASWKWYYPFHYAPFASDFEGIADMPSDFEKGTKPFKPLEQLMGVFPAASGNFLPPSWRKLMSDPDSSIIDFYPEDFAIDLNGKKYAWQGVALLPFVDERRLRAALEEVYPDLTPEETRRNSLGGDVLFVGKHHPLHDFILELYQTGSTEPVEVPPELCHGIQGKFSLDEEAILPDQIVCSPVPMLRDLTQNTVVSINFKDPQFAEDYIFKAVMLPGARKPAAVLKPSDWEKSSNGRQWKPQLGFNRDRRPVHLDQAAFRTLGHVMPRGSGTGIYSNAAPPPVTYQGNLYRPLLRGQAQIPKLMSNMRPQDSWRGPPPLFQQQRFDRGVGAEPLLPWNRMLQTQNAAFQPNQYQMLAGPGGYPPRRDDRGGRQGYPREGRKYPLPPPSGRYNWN
# UniProt Q7Z2W4: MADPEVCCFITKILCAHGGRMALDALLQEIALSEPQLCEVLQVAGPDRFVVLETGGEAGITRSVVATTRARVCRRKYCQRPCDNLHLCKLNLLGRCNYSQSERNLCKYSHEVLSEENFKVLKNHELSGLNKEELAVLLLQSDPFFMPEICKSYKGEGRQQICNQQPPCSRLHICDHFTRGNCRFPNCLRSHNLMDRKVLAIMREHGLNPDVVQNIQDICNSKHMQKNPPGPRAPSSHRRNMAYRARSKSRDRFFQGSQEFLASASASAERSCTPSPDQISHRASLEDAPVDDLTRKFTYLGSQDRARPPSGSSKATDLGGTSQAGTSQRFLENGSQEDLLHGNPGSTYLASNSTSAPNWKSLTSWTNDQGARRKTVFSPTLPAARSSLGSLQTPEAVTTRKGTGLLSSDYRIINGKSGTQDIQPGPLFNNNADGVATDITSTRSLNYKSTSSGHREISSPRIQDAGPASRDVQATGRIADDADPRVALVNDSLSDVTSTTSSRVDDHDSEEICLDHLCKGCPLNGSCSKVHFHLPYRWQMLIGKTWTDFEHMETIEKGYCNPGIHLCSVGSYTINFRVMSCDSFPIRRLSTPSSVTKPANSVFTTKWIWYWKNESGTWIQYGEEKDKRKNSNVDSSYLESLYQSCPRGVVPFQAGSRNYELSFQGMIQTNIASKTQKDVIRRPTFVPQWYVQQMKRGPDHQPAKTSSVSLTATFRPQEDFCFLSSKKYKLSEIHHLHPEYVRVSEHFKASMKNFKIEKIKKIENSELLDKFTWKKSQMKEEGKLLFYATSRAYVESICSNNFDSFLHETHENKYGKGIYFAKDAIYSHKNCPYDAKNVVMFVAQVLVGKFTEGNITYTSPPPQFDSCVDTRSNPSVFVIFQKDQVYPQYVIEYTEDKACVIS
# UniProt Q9H8U3: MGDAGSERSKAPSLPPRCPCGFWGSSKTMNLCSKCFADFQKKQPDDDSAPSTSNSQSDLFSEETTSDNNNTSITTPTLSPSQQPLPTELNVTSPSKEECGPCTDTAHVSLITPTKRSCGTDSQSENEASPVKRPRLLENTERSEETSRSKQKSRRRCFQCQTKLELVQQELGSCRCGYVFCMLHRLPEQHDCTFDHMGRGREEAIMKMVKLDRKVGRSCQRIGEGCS
# UniProt P63104: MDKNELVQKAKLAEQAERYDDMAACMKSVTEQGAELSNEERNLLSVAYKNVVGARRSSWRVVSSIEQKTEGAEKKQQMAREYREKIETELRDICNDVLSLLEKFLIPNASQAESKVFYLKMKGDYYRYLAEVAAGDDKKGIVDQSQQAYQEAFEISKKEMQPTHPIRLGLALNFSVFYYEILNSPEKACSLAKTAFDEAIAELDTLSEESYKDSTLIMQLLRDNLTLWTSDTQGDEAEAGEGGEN
# UniProt A2A288: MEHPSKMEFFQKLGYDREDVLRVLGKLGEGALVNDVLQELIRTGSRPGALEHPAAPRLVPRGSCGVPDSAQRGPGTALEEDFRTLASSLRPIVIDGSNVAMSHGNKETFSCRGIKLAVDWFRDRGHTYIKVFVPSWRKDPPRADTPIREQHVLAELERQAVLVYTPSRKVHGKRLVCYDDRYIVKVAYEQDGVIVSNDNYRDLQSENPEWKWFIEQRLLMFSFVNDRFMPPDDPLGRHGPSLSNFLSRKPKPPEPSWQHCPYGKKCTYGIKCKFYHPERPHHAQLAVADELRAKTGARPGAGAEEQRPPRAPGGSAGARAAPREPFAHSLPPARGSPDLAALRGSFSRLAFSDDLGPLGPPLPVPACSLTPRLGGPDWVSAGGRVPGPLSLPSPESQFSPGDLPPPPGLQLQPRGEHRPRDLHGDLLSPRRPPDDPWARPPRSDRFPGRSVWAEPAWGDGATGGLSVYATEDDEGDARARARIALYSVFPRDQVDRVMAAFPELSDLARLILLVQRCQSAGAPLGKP
# UniProt Q6NZY4: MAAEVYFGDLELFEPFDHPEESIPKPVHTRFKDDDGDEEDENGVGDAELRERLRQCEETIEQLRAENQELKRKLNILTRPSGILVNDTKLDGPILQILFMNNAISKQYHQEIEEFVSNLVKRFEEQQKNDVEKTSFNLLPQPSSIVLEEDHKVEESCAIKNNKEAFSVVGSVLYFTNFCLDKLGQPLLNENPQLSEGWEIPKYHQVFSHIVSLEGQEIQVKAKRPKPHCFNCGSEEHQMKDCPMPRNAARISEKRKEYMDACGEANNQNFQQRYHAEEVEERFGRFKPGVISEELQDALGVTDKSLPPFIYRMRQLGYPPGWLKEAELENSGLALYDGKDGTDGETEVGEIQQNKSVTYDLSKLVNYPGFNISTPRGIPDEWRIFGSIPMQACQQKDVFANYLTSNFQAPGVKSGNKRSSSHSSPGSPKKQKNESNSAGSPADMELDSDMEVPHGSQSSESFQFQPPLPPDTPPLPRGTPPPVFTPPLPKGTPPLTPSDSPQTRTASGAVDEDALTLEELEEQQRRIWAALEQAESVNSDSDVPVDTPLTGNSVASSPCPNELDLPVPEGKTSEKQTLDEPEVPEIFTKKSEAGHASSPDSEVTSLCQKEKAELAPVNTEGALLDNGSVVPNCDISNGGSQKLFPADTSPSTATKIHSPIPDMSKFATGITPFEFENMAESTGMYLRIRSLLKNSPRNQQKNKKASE
# UniProt O43829: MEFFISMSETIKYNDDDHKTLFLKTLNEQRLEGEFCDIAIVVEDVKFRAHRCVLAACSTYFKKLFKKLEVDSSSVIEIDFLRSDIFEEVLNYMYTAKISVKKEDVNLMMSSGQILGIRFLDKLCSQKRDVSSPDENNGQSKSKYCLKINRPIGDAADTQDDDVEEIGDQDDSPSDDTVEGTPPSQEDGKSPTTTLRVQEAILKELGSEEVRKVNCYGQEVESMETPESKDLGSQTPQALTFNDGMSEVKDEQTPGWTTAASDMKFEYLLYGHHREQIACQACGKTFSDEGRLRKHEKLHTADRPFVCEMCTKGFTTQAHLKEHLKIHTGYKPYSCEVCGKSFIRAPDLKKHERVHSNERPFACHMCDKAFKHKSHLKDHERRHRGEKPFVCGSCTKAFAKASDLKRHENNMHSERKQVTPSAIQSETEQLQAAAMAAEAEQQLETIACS
# UniProt Q9HAV4: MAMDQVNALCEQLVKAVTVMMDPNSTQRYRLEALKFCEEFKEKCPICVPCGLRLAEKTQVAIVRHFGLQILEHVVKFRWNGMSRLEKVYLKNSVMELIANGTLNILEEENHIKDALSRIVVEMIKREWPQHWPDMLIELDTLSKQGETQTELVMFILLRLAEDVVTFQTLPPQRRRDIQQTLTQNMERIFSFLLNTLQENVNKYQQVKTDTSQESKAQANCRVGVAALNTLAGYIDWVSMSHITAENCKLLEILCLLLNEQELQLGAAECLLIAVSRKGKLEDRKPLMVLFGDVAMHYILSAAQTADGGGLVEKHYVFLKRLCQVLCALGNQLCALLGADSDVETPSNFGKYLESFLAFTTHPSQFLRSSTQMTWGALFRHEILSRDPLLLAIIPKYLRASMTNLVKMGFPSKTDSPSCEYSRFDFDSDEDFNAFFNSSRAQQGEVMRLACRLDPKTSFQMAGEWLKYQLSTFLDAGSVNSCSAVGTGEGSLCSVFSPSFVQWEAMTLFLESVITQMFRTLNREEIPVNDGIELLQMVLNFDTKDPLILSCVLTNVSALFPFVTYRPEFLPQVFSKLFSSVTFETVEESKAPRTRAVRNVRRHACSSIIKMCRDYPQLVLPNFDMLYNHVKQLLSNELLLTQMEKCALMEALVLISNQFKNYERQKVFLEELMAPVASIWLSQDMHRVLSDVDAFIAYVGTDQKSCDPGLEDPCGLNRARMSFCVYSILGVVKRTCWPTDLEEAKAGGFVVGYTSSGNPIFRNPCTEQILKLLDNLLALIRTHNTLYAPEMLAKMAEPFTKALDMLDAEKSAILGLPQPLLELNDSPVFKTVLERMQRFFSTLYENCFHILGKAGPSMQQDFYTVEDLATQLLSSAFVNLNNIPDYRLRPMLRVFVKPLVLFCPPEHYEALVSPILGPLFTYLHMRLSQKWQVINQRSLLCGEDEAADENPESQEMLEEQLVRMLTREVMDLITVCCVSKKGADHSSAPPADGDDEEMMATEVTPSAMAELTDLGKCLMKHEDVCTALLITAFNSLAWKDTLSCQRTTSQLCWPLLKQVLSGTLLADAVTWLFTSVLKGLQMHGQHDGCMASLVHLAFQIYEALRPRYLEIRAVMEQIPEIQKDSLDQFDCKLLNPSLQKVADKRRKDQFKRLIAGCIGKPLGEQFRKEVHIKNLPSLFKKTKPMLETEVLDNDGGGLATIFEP
# Compound: Cc1cc(ccc1-c1ccccc1)C(=O)N1CCCN(CC1)C(=O)CCl [compound 10]
# Assay: probe-labelled cysteine peptide fold change vs DMSO (competition) (log2 fold change); higher = less target engagement (more negative = stronger competition)
# Settings: THP-1, incubation time: 4 h
# 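Note: competitive profiling in live THP-1 cells: cysteine peptides tagged with an iodoacetamide desthiobiotin (IA-DTB) probe, intensity after compound treatment relative to DMSO-treated cells.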
Target,probe-labelled cysteine peptide fold change (10 µM),probe-labelled cysteine peptide fold change (50 µM)
XPOT_O43592_56_FFCFQVLEHQVK (UniProt O43592),0.231,0.376
ZFAND1_Q8TCF1_25_DFLPFVCDDCSGIFCLEHR (UniProt Q8TCF1),0.246,0.0429
ZC3H4_Q9UPT8_433_FYITGFCAR (UniProt Q9UPT8),0.111,0.0102
ZC3HAV1L_Q96H79_169_ILLLQNDPCLLPEVCLLYNK (UniProt Q96H79),0.312,0.251
YEATS2_Q9ULM3_565_QEDSLFASMPPLCPIGSHPK (UniProt Q9ULM3),-0.301,-0.418
ZC3H7A_Q8IWR0_98_IACYSNMGFHDK (UniProt Q8IWR0),0.183,-0.18
ZBTB11_O95625_214_LSNQFCDVTLLIEGEEYK (UniProt O95625),-0.115,0.206
ZCCHC3_Q9NUD5_372+375_GIVCNLCGK (UniProt Q9NUD5),-0.0364,-0.0559
XRN2_Q9H0D6_266_EEFKPNKPKPCGLCNQFGHEVK (UniProt Q9H0D6),0.13,-0.465
XPO7_Q9UIA9_767_AIELWYHDPACTTPVLK (UniProt Q9UIA9),-0.101,0.198
ZCCHC7_Q8N3Z6_296_MLDHSCLFR (UniProt Q8N3Z6),-0.0958,-0.31
ZC3HC1_Q86WB0_102_WAGKPFELSPLVCAK (UniProt Q86WB0),-0.137,-0.533
YWHAH_Q04917_97_ELETVCNDVLSLLDK (UniProt Q04917),0.0168,-0.0243
ZDHHC21_Q8IVQ6_112_CGHCVR (UniProt Q8IVQ6),0.0718,-0.0337
ZC3HAV1_Q7Z2W4_15_ILCAHGGR (UniProt Q7Z2W4),0.177,-0.105
ZCCHC3_Q9NUD5_385_RGHAFAQCPK (UniProt Q9NUD5),0.0637,0.102
ZFAND3_Q9H8U3_192_LPEQHDCTFDHMGR (UniProt Q9H8U3),-0.152,-0.347

Target,probe-labelled cysteine peptide fold change (10 µM),probe-labelled cysteine peptide fold change (50 µM)
ZFAND3_Q9H8U3_181_CGYVFCMLHR (UniProt Q9H8U3),-0.278,-0.353
XPO6_Q96QU8_299_MASVNGSSQNCVSGQER (UniProt Q96QU8),-0.0798,-0.214
YWHAZ_P63104_94_DICNDVLSLLEK (UniProt P63104),0.233,0.309
XRN2_Q9H0D6_736_FSLDEEAILPDQIVCSPVPMLR (UniProt Q9H0D6),0.25,0.374
ZC3H12D_A2A288_260_KPKPPEPSWQHCPYGK (UniProt A2A288),0.0532,-0.227
ZCCHC8_Q6NZY4_607_KSEAGHASSPDSEVTSLCQK (UniProt Q6NZY4),0.0879,-0.446
ZBTB14_O43829_52_CVLAACSTYFK (UniProt O43829),-0.261,0.226
ZC3H7A_Q8IWR0_775_QMPLQFDLCNHIASGK (UniProt Q8IWR0),0.00359,-0.0723
ZFC3H1_O60293_1864_FCSVMPANSGLALR (UniProt O60293),-0.0336,-0.0942
ZC3HAV1_Q7Z2W4_7+8_ADPEVCCFITK (UniProt Q7Z2W4),0.00723,-0.751
XPO5_Q9HAV4_10_AMDQVNALCEQLVK (UniProt Q9HAV4),0.245,0.0992
XPO5_Q9HAV4_1157_LIAGCIGK (UniProt Q9HAV4),0.149,0.293
ZBTB14_O43829_391_PFVCGSCTK (UniProt O43829),0.104,-0.263
ZFAT_Q9P243_392_EALDELCLMTR (UniProt Q9P243),0.0869,-0.0057
YWHAQ_P27348_25_LAEQAERYDDMATCMK (UniProt P27348),-0.259,-0.845
ZBTB7A_O95365_490_DGCNGVPSR (UniProt O95365),0.000157,-0.0775
ZCCHC3_Q9NUD5_372_KGIVCNLCGK (UniProt Q9NUD5),0.0789,-0.311

# An excerpt of these results, with tabs:
Target	probe-labelled cysteine peptide fold change (10 µM)	probe-labelled cysteine peptide fold change (50 µM)
ZC3H12D_A2A288_260_KPKPPEPSWQHCPYGK (UniProt A2A288)	0.0532	-0.227
ZCCHC8_Q6NZY4_607_KSEAGHASSPDSEVTSLCQK (UniProt Q6NZY4)	0.0879	-0.446
ZBTB14_O43829_52_CVLAACSTYFK (UniProt O43829)	-0.261	0.226
